In patent publication US20220144970A1:
Results are given in words; binding and its absence hold for the method and conditions named. Some results given as binding are weak or reduced against the parent protein; the word gives no strength.

Chains of the proteins cited; added tags and fusions are not shown. Residues count along the entry.
UniProt P01591, residues 23-159: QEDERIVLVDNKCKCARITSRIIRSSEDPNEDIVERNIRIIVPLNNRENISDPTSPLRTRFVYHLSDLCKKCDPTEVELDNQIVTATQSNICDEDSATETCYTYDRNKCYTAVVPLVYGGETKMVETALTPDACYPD

Molecular target: J chain of intact dIgA (human) (UniProt P01591)
Assay: ELISA on intact dIgA

binding: binds
B1: CA1L 33e1 A1a3 (antibody, V domains shown)
VH: DVKLVESGEGLVKPGGSLKLSCVASGFTFSNYGMSWVRQTPEKRLEWVAFINRGGDRIYYADTVKGRFTISRDNARNTLYLQMSSLKSEDTAIYYCRGLYYYGSDYYFDYWGQGTTLTVSS
VL: DIQMTQSPASLSTSVGETVTITCRASGNIHNYLAWSQQKQGNSPQLLVYNAKTLAEGVPSRFSGSGSGTQYSLKINSLQPEDFGSYYCHHYYSTPYTFGSGTKLEIK
